For one compound, modified bases results are on record in patent US8609419B2, “Method for inserting a nucleic acid of interest into a prokaryotic or eukaryotic cell by homologous recombination” (Centre National de la Recherche Scientifique, priority 2002, dated 2013).

The data set concerns DNA vector (plasmid, 5,000 pair of bases long). In words: Number of N-AcO-AAF molecules bound per DNA vector (UV spectrophotometry and radioactivity counting). Particulars: 60 μg DNA vector with 1.2 μg N-AcO-AAF.

Regarding `CC(=O)ON(C(C)=O)c1ccc2c(c1)Cc1ccccc1-2` [N-AcO-AAF, N-acetoxy-2-acetylaminofluorene], the modified bases by setting is: (step a) 4 minutes) 0.26%; (step a) 8 minutes) 0.36%; (step a) 20 minutes) 1.12%.
